## Percent effect of library compounds

Data taken from ChEMBL document CHEMBL3988442, “University of Dundee, Small-Polar-MMV Screening Library” (2021).

The filed quantity is “Percent Effect” (%).
How 0% and 100% were set is not recorded. Most values in the screen are low, and negative values occur.
The compounds are a random part of those screened.

T. brucei: 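Whole-parasite assay of Trypanosoma brucei over 72 hours; the read-out is not stated. Compounds at 30 µM. The record gives no direction; compounds that gave an IC50 in retests scored well above the rest, so higher reads as stronger inhibition. Values scatter widely below zero; nearly all retest evidence comes from the higher of the two concentrations used. About 64,000 compounds were tested under these conditions; 1.5% (about 940) showed 50% or more at least once.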
Toxoplasma: 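Assay of Toxoplasma gondii numbers, read through their beta-galactosidase reporter with a colour substrate. Compounds at 10 µM. Higher reads as fewer parasites (inferred from which compounds were picked for retests). Size under these conditions: about 67,000 compounds, about 260 of them at 50% or above in at least one test.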

structure: COCCC1(CO)CCCN(Cc2ccncc2)C1 (stereo not given)
T. brucei: -169.9
Toxoplasma: 16.98

structure: COCCN(Cc1nc2c(cnn2C)c(=O)[nH]1)C(C)c1ccccc1 (stereo not given)
T. brucei: -9.72
Toxoplasma: -19.45

structure: Cl.Cl.Cn1cc(C(=O)NCc2cncc3c2CCN(CC2CC2)C3)cn1
T. brucei: -27.13
Toxoplasma: -7.549

structure: Cn1ccnc1-c1cnn(CC(=O)Nc2ccnn2C)c1
T. brucei: -59.62
Toxoplasma: -8.09

structure: O=C(c1cncs1)N1CCC(Cc2cnc3[nH]ccc3c2)CC1
T. brucei: 15.97
Toxoplasma: 21.23

structure: O=C(O)C(F)(F)F.[H][C@@]12CCN(Cc3ccccc3F)[C@]1([H])CC[C@@H](C(=O)NC)O2
T. brucei: -9.012
Toxoplasma: 5.851

structure: CNS(=O)(=O)c1ccc(C(=O)NCc2ccnc(OC)c2)cc1
T. brucei: -10.78
Toxoplasma: 5.444

structure: CN1CCN(S(=O)(=O)c2ncn(C)c2Cl)CC1
T. brucei: -36.31
Toxoplasma: -2.149

structure: CCc1[nH]c2ccc(CNC(=O)c3cnc(N)nc3C)cc2c1C
T. brucei: -11.72
Toxoplasma: -2.497

structure: NC(=O)NCC1CCCCN1C(=O)c1ccc(Cl)s1 (stereo not given)
T. brucei: 13.08
Toxoplasma: 2.526

structure: CN(C)C(CNC(=O)c1nc(N2CCOCC2)ncc1Cl)c1cccs1 (stereo not given)
T. brucei: -24.77
Toxoplasma: -6.963

structure: CNC(=O)c1cccc(CN2CCC(N(C)Cc3nnc(C)o3)C2)c1 (stereo not given)
T. brucei: -34.79
Toxoplasma: 1.554

structure: Cn1cc(NC(=O)N2CCCC2c2cccnc2)ccc1=O (stereo not given)
T. brucei: -22.66
Toxoplasma: -29.57

structure: CCn1ncnc1C(C)NC(=O)C1CCN(C2CCCCC2)CC1 (stereo not given)
T. brucei: -84.54
Toxoplasma: 3.653

structure: CC(=O)Nc1ccc(S(=O)(=O)N2CCOC(Cn3ccnc3)C2)cc1 (stereo not given)
T. brucei: -15.75
Toxoplasma: 7.602

structure: O=C(C1CC(=O)N(C2CC2)C1)N1CCC(Oc2ccccc2Cl)CC1 (stereo not given)
T. brucei: -34.12
Toxoplasma: 0.9699

structure: Cn1nc(C2CCN(CC(=O)NC3CC3)CC2)n(-c2ccccc2)c1=O
T. brucei: 3.96
Toxoplasma: -0.2817

structure: O=C(c1ccc(OCC2CC2)cc1)N1CCOCC1c1ncon1 (stereo not given)
T. brucei: -29.03
Toxoplasma: -12.49

structure: CCn1nc(C)c2nc(C(C)C)nc(N3CCOCC3)c21
Toxoplasma: 8.349

structure: CN(CCc1cn[nH]c1)Cc1nc(Cc2cccc(C(F)(F)F)c2)no1
T. brucei: 3.535
Toxoplasma: 19.05

structure: Cc1nnc(SCC(=O)Nc2csc3nc(=O)c(C)nn23)s1
T. brucei: -27.48
Toxoplasma: 12.8

structure: CCn1cc(-c2cc(C(F)(F)F)nn2CCC#N)cn1
T. brucei: 22.7
Toxoplasma: -14.83

structure: CC(Nc1nccc(CCC(F)(F)F)n1)c1nc(-c2ccncc2)no1 (stereo not given)
T. brucei: -16.84
Toxoplasma: -19.61

structure: CNC(=O)CS(=O)(=O)C1CCN(S(=O)(=O)c2cccc(Cl)c2C)CC1
T. brucei: 16.38
Toxoplasma: 4.751

structure: Cc1nn(C)c2nc(NCCCN3CCCC(CO)C3)sc12 (stereo not given)
T. brucei: 13.04
Toxoplasma: 7.412

For reference, 2 entries once more:

- Cc1nnc(SCC(=O)Nc2csc3nc(=O)c(C)nn23)s1 : T. brucei: -27.48%; Toxoplasma: 12.8%
- CC(Nc1nccc(CCC(F)(F)F)n1)c1nc(-c2ccncc2)no1 (stereo not given) : T. brucei: -16.84%; Toxoplasma: -19.61%